The text below walks through data of paper PMC12466236.

The assay addresses Ago1-FLAG-HA (human) (UniProt Q9UL18). Briefly: co-IP; anti-FLAG M2 IP of Ago1-FLAG-HA from nuclear extracts of transfected HEK-293T cells; IP buffer 20 mM Tris pH 7.3, 200 mM KCl, 0.2% Triton; overnight at 4 °C; without RNase treatment.

No constants are given. Whether binding was seen depends on the method and setting. In cells and extracts the contact can be indirect. Some entries that bind do so weakly or less than the wild type.

B1: Drosha, endogenous (enzyme, UniProt Q9NRR4 1-1374)
chain: MMQGNTCHRMSFHPGRGCPRGRGGHGARPSAPSFRPQNLRLLHPQQPPVQYQYEPPSAPSTTFSNSPAPNFLPPRPDFVPFPPPMPPSAQGPLPPCPIRPPFPNHQMRHPFPVPPCFPPMPPPMPCPNNPPVPGAPPGQGTFPFMMPPPSMPHPPPPPVMPQQVNYQYPPGYSHHNFPPPSFNSFQNNPSSFLPSANNSSSPHFRHLPPYPLPKAPSERRSPERLKHYDDHRHRDHSHGRGERHRSLDRRERGRSPDRRRQDSRYRSDYDRGRTPSRHRSYERSRERERERHRHRDNRRSPSLERSYKKEYKRSGRSYGLSVVPEPAGCTPELPGEIIKNTDSWAPPLEIVNHRSPSREKKRARWEEEKDRWSDNQSSGKDKNYTSIKEKEPEETMPDKNEEEEEELLKPVWIRCTHSENYYSSDPMDQVGDSTVVGTSRLRDLYDKFEEELGSRQEKAKAARPPWEPPKTKLDEDLESSSESECESDEDSTCSSSSDSEVFDVIAEIKRKKAHPDRLHDELWYNDPGQMNDGPLCKCSAKARRTGIRHSIYPGEEAIKPCRPMTNNAGRLFHYRITVSPPTNFLTDRPTVIEYDDHEYIFEGFSMFAHAPLTNIPLCKVIRFNIDYTIHFIEEMMPENFCVKGLELFSLFLFRDILELYDWNLKGPLFEDSPPCCPRFHFMPRFVRFLPDGGKEVLSMHQILLYLLRCSKALVPEEEIANMLQWEELEWQKYAEECKGMIVTNPGTKPSSVRIDQLDREQFNPDVITFPIIVHFGIRPAQLSYAGDPQYQKLWKSYVKLRHLLANSPKVKQTDKQKLAQREEALQKIRQKNTMRREVTVELSSQGFWKTGIRSDVCQHAMMLPVLTHHIRYHQCLMHLDKLIGYTFQDRCLLQLAMTHPSHHLNFGMNPDHARNSLSNCGIRQPKYGDRKVHHMHMRKKGINTLINIMSRLGQDDPTPSRINHNERLEFLGDAVVEFLTSVHLYYLFPSLEEGGLATYRTAIVQNQHLAMLAKKLELDRFMLYAHGPDLCRESDLRHAMANCFEALIGAVYLEGSLEEAKQLFGRLLFNDPDLREVWLNYPLHPLQLQEPNTDRQLIETSPVLQKLTEFEEAIGVIFTHVRLLARAFTLRTVGFNHLTLGHNQRMEFLGDSIMQLVATEYLFIHFPDHHEGHLTLLRSSLVNNRTQAKVAEELGMQEYAITNDKTKRPVALRTKTLADLLESFIAALYIDKDLEYVHTFMNVCFFPRLKEFILNQDWNDPKSQLQQCCLTLRTEGKEPDIPLYKTLQTVGPSHARTYTVAVYFKGERIGCGKGPSIQQAEMGAAMDALEKYNFPQMAHQKRFIERKYRQELKEMRWEREHQEREPDETEDIKK
B1: the binding entry is on record as “binds”.
